Values of other authors as cited in US9889101B2, “Therapeutic treatment of cancer and dysplasia of the cervix or vagina using estrogen antagonists” (Wisconsin Alumni Research Foundation, priority 2009, dated 2018).
At least one structure is not confirmed: it was looked up by name or label, or the drawing left a doubt.

Test system: ER
Settings: undefined if not mentioned; cited from earlier work

CC1=C(c2ccc(O)cc2)[C@H](c2ccc(OCCN3CCCCC3)cc2)Oc2cc(O)ccc21 [Acolbifene (EM-652), Acolbifene]
Effect in cervix, vagina and endometrium: antagonist in endometrium

Cc1c(-c2ccc(O)cc2)n(Cc2ccc(OCCN3CCCCCC3)cc2)c2ccc(O)cc12 [Bazedoxifene]
Effect in cervix, vagina and endometrium: antagonist in endometrium
